Source: patent US20090317396A1 (AJOU UNIVERSITY INDUSTRY ACADEMIC COOPERATION FOUNDATION, published 2009)
Results are given in words; binding and its absence hold for the method and conditions named. Some entries that bind do so weakly or less than the wild type.

The chains behind the UniProt entries cited, without tags or fusion partners. Residues count along the entry.
UniProt O14763, residues 52-182: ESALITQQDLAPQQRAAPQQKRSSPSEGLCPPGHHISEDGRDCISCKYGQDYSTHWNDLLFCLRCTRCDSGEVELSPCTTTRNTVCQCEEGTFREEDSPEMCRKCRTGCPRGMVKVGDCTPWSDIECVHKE

Assays:
death receptor 5 (DR5) [1] = target: death receptor 5 (DR5) (UniProt O14763); assay: SPR (Biacore 2000), DR5 immobilised on CM5 chip
death receptor 5 (DR5) [2] = target: death receptor 5 (DR5) (UniProt O14763); assay: competitive ELISA on coated DR5, with or without 20 µg/ml TRAIL as competitor
death receptor 5 (DR5) [3] = target: death receptor 5 (DR5) (UniProt O14763); assay: competitive ELISA: HW6 pre-bound to the DR5-coated plate (16 µg/µl as written in paragraph 107), then TRAIL titrated as competitor; bound scFv detected
death receptor 5 (DR5) [4] = target: death receptor 5 (DR5) (UniProt O14763); assay: SPR (Biacore 2000): DR5 immobilised on a CM5 chip, HW6 injected at 25 to 400 nM in PBS pH 7.4, 25 °C
death receptor 5 (DR5) [5] = target: death receptor 5 (DR5) (UniProt O14763); assay: competitive ELISA on coated DR5 with 20 µg/ml TRAIL present; detection with anti-Flag M2 or anti-E-tag, then AP anti-mouse IgG and p-NPP; A405 plotted as bound fraction
death receptor 5 (DR5) [6] = target: death receptor 5 (DR5) (UniProt O14763); assay: MACS and FACS of yeast-displayed scFv with 1 µM biotin-labelled DR5
death receptor 5 (DR5) [7] = target: death receptor 5 (DR5) (UniProt O14763); assay: ELISA on coated DR5, no TRAIL; detection with anti-Flag M2 or anti-E-tag, then AP anti-mouse IgG and p-NPP; A405 plotted as bound fraction
death receptor 5 (DR5) [8] = target: death receptor 5 (DR5) (UniProt O14763); assay: ELISA, HW6 pre-bound to DR5-fixed plate, TRAIL titrated as competitor

Measured: binding

B1: HW6 anti-DR5 scFv antibody (scFv)
scFv: QVQLQQSGPGRVQPSQTLSLTCAISGDSVSNNNAAWYWIRQSPSRGLEWLGRTYYRSKWYNDYAVSVKSRITISPDTSKNQFSLQLNSVTPEDTAVYYCARRGDGNSYFDYWGQGTLVTVSSGILRWGRFGWRGLGRGWLEIVLTQSPGTLSLSPGERATLSCRASQSVSSGYVSWYRQKPGQAPRLLIYGASTRATGIPDRFSGSGSGTDFTLTISRLEPEDFAVYYCHQYGSSPNTYGQGTKVGIK
notes: Human scFv expressed in E. coli periplasm, purified, monomeric; not shown: C-terminal Flag tag from vector pKJ1; C-terminal 6xHis tag from vector pKJ1
binds: death receptor 5 (DR5) [1] | death receptor 5 (DR5) [2] | death receptor 5 (DR5) [3] | death receptor 5 (DR5) [4] | death receptor 5 (DR5) [5] | death receptor 5 (DR5) [6] | death receptor 5 (DR5) [7] | death receptor 5 (DR5) [8]
